Binding data for one substance are collected here from publication PMC4905479.

Amino acid sequences for entries named in this document (tags omitted).
UniProt O14746: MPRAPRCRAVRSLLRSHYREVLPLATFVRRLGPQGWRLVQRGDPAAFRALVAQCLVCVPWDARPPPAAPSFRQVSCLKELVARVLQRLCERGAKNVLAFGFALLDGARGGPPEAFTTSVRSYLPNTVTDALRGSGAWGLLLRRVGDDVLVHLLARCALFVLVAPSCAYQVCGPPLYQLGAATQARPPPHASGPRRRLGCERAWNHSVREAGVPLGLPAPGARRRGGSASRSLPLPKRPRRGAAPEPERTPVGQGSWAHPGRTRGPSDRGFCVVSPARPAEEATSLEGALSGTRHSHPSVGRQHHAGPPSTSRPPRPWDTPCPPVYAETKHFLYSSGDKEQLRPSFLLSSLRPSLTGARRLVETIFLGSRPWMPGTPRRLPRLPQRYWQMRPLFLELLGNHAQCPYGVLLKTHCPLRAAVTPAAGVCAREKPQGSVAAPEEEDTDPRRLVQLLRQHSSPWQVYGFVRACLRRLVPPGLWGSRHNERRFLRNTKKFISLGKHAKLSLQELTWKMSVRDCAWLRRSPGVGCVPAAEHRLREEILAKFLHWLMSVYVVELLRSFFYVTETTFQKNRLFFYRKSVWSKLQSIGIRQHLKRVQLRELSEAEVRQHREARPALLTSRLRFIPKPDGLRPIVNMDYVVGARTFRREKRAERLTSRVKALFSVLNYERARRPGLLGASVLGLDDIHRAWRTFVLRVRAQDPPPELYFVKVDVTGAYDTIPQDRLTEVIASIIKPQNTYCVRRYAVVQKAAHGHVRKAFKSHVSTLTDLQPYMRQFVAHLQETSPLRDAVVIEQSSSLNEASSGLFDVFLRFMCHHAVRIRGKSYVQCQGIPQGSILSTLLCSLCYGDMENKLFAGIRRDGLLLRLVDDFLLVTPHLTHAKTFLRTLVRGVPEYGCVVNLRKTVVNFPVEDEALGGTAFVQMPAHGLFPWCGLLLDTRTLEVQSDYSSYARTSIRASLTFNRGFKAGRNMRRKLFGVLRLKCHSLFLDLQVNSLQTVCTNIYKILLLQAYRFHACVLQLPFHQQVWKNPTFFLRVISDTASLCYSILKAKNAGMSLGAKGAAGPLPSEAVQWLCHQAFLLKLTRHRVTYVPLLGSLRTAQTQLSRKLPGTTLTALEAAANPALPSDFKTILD
UniProt P01106: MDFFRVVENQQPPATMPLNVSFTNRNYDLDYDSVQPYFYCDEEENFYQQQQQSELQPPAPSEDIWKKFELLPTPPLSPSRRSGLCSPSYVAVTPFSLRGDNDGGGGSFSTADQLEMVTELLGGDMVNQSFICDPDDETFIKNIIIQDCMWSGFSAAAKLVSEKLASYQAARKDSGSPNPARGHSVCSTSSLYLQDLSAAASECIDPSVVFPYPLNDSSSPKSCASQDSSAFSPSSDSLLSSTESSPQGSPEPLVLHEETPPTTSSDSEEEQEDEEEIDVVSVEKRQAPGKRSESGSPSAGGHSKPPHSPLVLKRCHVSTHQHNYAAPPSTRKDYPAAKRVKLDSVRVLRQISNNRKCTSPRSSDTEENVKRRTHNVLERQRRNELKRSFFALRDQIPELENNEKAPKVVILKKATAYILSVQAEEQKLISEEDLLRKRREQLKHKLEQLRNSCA

No constants are given. Whether binding was seen depends on the method and setting. In cells and extracts the contact can be indirect. Some entries that bind do so weakly or less than the wild type.

Assay [1] deals with Human telomerase reverse transcriptase (human (endogenous in SGC7901)) (UniProt O14746). The assay is described as follows: co-IP; cytoplasm and nuclear lysates of SGC7901 cells; IP with anti-hTERT or anti-c-Myc, then immunoblot.
Assay [2] has the same target. The assay is described as follows: co-IP; total cell lysates of SGC7901 cells (same results in MKN45); 500 ug extract with 5 ug anti-hTERT or anti-c-Myc antibody, 4 h at 4°C, Protein G magnetic beads, four washes; rabbit IgG as negative control; also after hTERT overexpression or hTERT knock-down (Figure 3G).

For c-Myc (from UniProt P01106 1-454), the binding entry in assay [1] and in assay [2] was “binds” throughout.
